Test results reported in PubChem BioAssay AID504467 (National Center for Advancing Translational Sciences (NCATS), 2011).
In all, about 330,000 compounds went through this assay and about 7,700 (2.3%) were called active. Inconclusive means that the source gave no clear call. Such entries were picked first, then a sample of the others. Calls come from the whole dose curve; as a rule, active = well fitted inhibition curve with a large enough effect; inconclusive = small, poorly fitted or top-dose-only effect, or effect the other way; inactive = flat fitted curve, though single readings scatter. Potencies of inconclusive entries are doubtful fits and often do not repeat.

Test: qHTS screen for small molecules that inhibit ELG1-dependent DNA repair in human embryonic kidney (HEK293T) cells expressing luciferase-tagged ELG1; note: nearly all actives have a fitted effect of over 55% in size
Conditions: HEK293T ELG1-luciferase reporter, luminescence, 16 h, DNA damage induced by 5-fluorouridine; activity change, negative = inhibition: at 46.1 µM (top of the series)
In short: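 In this reporter screen, reduction of luminescence relative to DMSO vehicle indicated activity. Compounds and 5-fluorouridine were added together to 2,000 cells per well, incubated for 16 hr at 37 °C, then developed with ONE-Glo.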
% is set by controls: 0 for no effect and ±100 for the full control effect; potency is the fitted concentration of half-maximal effect.

Structure (SMILES) | Potency | activity change, negative = inhibition
Cc1ccc(C(=O)N/N=C/c2cn(Cc3ccccc3)c3ccccc23)cn1 | active: 6.51 µM | –
O=C(Cc1cccc([N+](=O)[O-])c1)Nc1cccc(C(=O)N2CCCCC2)c1 | active: 16.4 µM | –
Fc1ccc(-c2c[nH]c(=S)n2Cc2ccccc2)cc1 | – | inactive: -17.5%
O=C1C2C(C(=O)N1/N=C/c1ccc([N+](=O)[O-])o1)C1C=CC2C12CC2 (centres undefined) | – | inactive: -5.91%
O=C(/C=C/c1ccc(Cl)c(Cl)c1)N1CCc2ccccc21 | inconclusive: 16.4 µM [activator, partial curve] | –
Cc1cc(NC(=O)C(C)N2C(=O)c3ccccc3S2(=O)=O)no1 (centres undefined) | inconclusive: 29.1 µM [activator, partial curve, poor fit] | –
Cc1c(C(=O)N(CC(C)C)c2c(N)n(Cc3ccccc3)c(=O)[nH]c2=O)sc2nc3n(c(=O)c12)CCC3 | – | inactive: -0.456%
CC(C)Oc1ccc(/C=N/NC(N)=S)cc1 | inconclusive: 14.6 µM [activator, partial curve] | –
COc1ccc(-c2csc(N(CC3CCCO3)C(=O)c3ccco3)n2)cc1 (centres undefined) | inconclusive: 18.4 µM [inhibitor, partial curve] | –
Cc1ccc(S(=O)(=O)N(C)Cc2ccc(C(=O)N/N=C/c3ccc(OC(F)F)cc3)cc2)cc1 | – | inactive: -5.61%
CC(C)CC(=O)NC(=S)Nc1ccc(N2CCOCC2)cc1 | inconclusive: 18.4 µM [activator, single point] | –
COc1ccc(NS(=O)(=O)c2ccc(N3CCCC3)c(NC(=S)Nc3ccc(SC(F)F)cc3)c2)cc1 | active: 23.1 µM | –
CSC(=S)N/N=C(\C)c1ccccc1 | inconclusive: 5.8 µM [activator, single point] | –
CCCNC(=O)c1ccc(N2CCC3(CC2)CC(c2cccc(Br)c2)=NO3)c(NC(=O)c2ccc(Cl)c([N+](=O)[O-])c2)c1 | inconclusive: 10 µM [inhibitor, partial curve, poor fit] | –
CCNC(=O)c1c(O)c2cccc3c2n(c1=O)CC3 | inconclusive: 9.2 µM [activator, partial curve] | –
COc1cccc(C(=O)NC(=S)Nc2ccc(N(C)C)cc2)c1 | inconclusive: 14.6 µM [activator, partial curve] | –
COc1ccc(C(=O)NN/C(C)=C/C(=O)C(F)(F)C(F)(F)C(F)(F)F)cc1 | inconclusive: 29.1 µM [inhibitor, single point] | –
O=C(c1cc(-c2ccncc2)nc2ccccc12)N1CCN(c2ncccn2)CC1 | active: 23.1 µM | –
COc1ccc(Cc2nc3ccc(C(=O)N(C)Cc4cc(C)[nH]n4)cc3o2)cc1OC | inconclusive: 8.2 µM [inhibitor, partial curve] | –

Part of the list above in another layout.

| Structure (SMILES) | Potency | activity change, negative = inhibition |
| --- | --- | --- |
| COc1ccc(NS(=O)(=O)c2ccc(N3CCCC3)c(NC(=S)Nc3ccc(SC(F)F)cc3)c2)cc1 | active: 23.1 µM | – |
| CCNC(=O)c1c(O)c2cccc3c2n(c1=O)CC3 | inconclusive: 9.2 µM [activator, partial curve] | – |
